Values from PubChem BioAssay AID1259254 (NCATS, 2017)
Test: 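Finding genes that stop cells copying their DNA twice in one cycle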 (primary screen). Cell system: human HCT116 colorectal cancer cells. Reagents: single siRNA against human genes. Timing: 3 days. Detection: 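Imaged Hoechst DNA stain sorts each cell into a cycle phase by DNA amount; per plate, G2 fraction set to 0% for non-targeting and 100% for GMNN siRNA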. Direction: G2 robust z-score: higher = more G2 cells, more excess DNA replication. Call rule: 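An siRNA counts as active if its G2 robust z-score lies at least 5 MADs above the screen median; here such calls match roughly 38% of GMNN control or more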.
In all, the deposit lists about 59,000 reagents; shown is a random part of them. Over the whole deposit, about 1,550 (2.6%) got an active call. 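G2 share is only a proxy for re-replication; each gene was hit by three separate siRNAs, and active genes were retested.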 Reagents against one gene are numbered here. Not all columns of the deposit are shown. The record does not give: the amount of reagent.

After knock-down of NIPAL3 (GeneID 57185) #1 the results were G2 robust z-score -0.554; inactive.
NIPAL3 (GeneID 57185) #2 gave G2 robust z-score 2.95; inactive.
NIPAL3 (GeneID 57185) #3 gave G2 robust z-score 0.148; inactive.
With knock-down of TDRD6 (GeneID 221400) #1, the record shows G2 robust z-score -1.1; inactive.
With knock-down of TDRD6 (GeneID 221400) #2, the screen gave G2 robust z-score 0.0202; inactive.
After knock-down of TDRD6 (GeneID 221400) #3 the results were G2 robust z-score 1.55; inactive.
PCSK1N (GeneID 27344) #1 showed G2 robust z-score 1.36; inactive.
With knock-down of PCSK1N (GeneID 27344) #2 the results were G2 robust z-score 0.226; inactive.
With knock-down of PCSK1N (GeneID 27344) #3, the record shows G2 robust z-score 2.28; inactive.
Against ITGAD (GeneID 3681) #1, the values are G2 robust z-score -0.804; inactive.
ITGAD (GeneID 3681) #2 scored G2 robust z-score 4.2; inactive.
Knock-down of ITGAD (GeneID 3681) #3 came out at: G2 robust z-score 1.29; inactive.

No new results follow: 2 of the entries above.
PCSK1N (GeneID 27344) #2 — G2 robust z-score = 0.226; call = inactive
PCSK1N (GeneID 27344) #3 — G2 robust z-score = 2.28; call = inactive
